# Measurements reported in PubChem BioAssay AID1053208 (Peter MacCallum Cancer Centre, 2014)
# Assay: 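Genes whose silencing cuts survival of bone tumour cells only with doxorubicin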 (primary screen)
# System: mouse osteosarcoma cells, early-passage culture from an engineered mouse model of fibroblastic bone tumour
# Knock-down reagent: siRNA pool against mouse genes, 40 nM
# Time to read-out: about 120 h (48 h before drug, then 72 h with drug)
# Conditions: doxorubicin 100 nM for 72 h, roughly 30-40% inhibitory dose
# Measurement: 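Luminescent ATP signal taken as viability with or without 100 nM doxorubicin for 72 h; mean of two wells set against non-targeting siRNA and turned into robust z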
# Direction: viability z-score with doxorubicin: higher = more viable cells under doxorubicin; viability z-score without drug: higher = more viable cells with knock-down alone
# Active means: 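a pool counts as active when its viability z-score with doxorubicin is -2 or below and its z-score without drug lies between -2 and 2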
# This is a random part of about 17,000 deposited reagents. In the full data, 788 (4.7%) were called active. 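Calls rest on z-score classes alone; an extra cut-off of viability at most 70% of control was not applied to them.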 Reagents against one gene are numbered here. Some reagents were tested in more than one well and are listed for each. Not all columns of the deposit are shown.
gene,reagent,combined z-score class,viability z-score with doxorubicin,viability z-score without drug,Call
Tnnt1,1,no change with or without drug,1.24,1.18,inactive
Tuft1,1,no change with or without drug,0.22,-1.85,inactive
Cmpk1,1,no change with or without drug,-1.35,-0.84,inactive
Cmpk1,1,no change with or without drug,1.24,0.34,inactive
Ampd3,1,no change with or without drug,-0.45,-0.51,inactive
Prelid1,1,no change with or without drug,-0.56,-0.84,inactive
Arhgap29,1,low cell count with doxorubicin only,-2.02,-0.17,active
Prl3c1,1,no change with or without drug,0.67,-0.84,inactive
Hacd3,1,no change with or without drug,-0.79,0.67,inactive
Snapc1,1,no change with or without drug,-0.11,0.17,inactive
CPEB4,1,no change with or without drug,-1.46,-0.17,inactive
Aff2,1,no change with or without drug,-0.9,-0.17,inactive
Cyp2c65,1,high cell count with doxorubicin only,2.59,-0.17,inactive
Il20,1,no change with or without drug,0.45,0.17,inactive
Mfap2,1,no change with or without drug,-0.22,0.34,inactive
Fancm,1,no change with or without drug,0,0.17,inactive
Samsn1,1,no change with or without drug,-0.45,0.51,inactive
Lrrn1,1,no change with or without drug,-1.8,0.34,inactive
Slc23a1,1,no change with or without drug,-0.67,-0.84,inactive
Nfic,1,no change with or without drug,0.11,-0.51,inactive
Nfic,2,no change with or without drug,1.01,0.34,inactive
Rnf26,1,no change with or without drug,0.79,0.51,inactive
Plxnb3,1,no change with or without drug,0,-0.51,inactive
Tmem50b,1,no change with or without drug,-1.57,-1.18,inactive
Wnt1,1,no change with or without drug,-0.67,0.51,inactive
Gid4,1,no change with or without drug,-0.67,0.51,inactive
Mrps30,1,no change with or without drug,1.01,0.17,inactive
Or52n3,1,no change with or without drug,-0.79,-1.18,inactive
Nkd2,1,no change with or without drug,1.12,0.34,inactive
Fam168b,1,no change with or without drug,-1.35,-1.35,inactive
Gins3,1,no change with or without drug,0.22,-0.84,inactive
Ndrg1,1,no change with or without drug,0.67,-0.17,inactive
Ndrg1,2,no change with or without drug,0.67,0.84,inactive
Gga1,1,no change with or without drug,-0.22,1.52,inactive
Saa3,1,no change with or without drug,-0.22,0.51,inactive
Exosc4,1,no change with or without drug,-0.45,0.34,inactive
Or6c75,1,no change with or without drug,-1.12,-1.85,inactive
Tsn,1,no change with or without drug,-0.34,-0.34,inactive
Ccnl2,1,no change with or without drug,-1.57,0.17,inactive
Exosc5,1,no change with or without drug,0.45,0.34,inactive
Hspe1,1,no change with or without drug,1.12,-0.17,inactive
H2-D4,1,no change with or without drug,0.34,0.67,inactive
Pdgfb,1,no change with or without drug,-0.67,-0.67,inactive
Ccer1,1,no change with or without drug,0.34,1.18,inactive
Csk,1,high cell count without drug only,-0.45,3.2,inactive
Ccng1,1,no change with or without drug,0.9,0.34,inactive
Mcl1,1,no change with or without drug,-0.45,-0.17,inactive
Nudt8,1,high cell count with doxorubicin only,2.14,0,inactive
Prpf31,1,low cell count without drug only,-1.57,-2.02,inactive
Celf2,1,low cell count with doxorubicin only,-4.27,-0.17,active
Celf2,2,no change with or without drug,0.11,-0.17,inactive

Active calls (from the list above):
gene,reagent,combined z-score class,viability z-score with doxorubicin,viability z-score without drug,Call
Arhgap29,1,low cell count with doxorubicin only,-2.02,-0.17,active
Celf2,1,low cell count with doxorubicin only,-4.27,-0.17,active
